Reference: patent publication US20240366775A1 (PEPTIDREAM INC., priority 2021, published 2024)

Assay: general procedure: Fmoc solid-phase peptide synthesis; Sieber Amide Resin; DIPCI/Oxyma Pure; HATU/DIEA
Conditions: whole synthesis, UV 225 nm

## 894_3m_GGRGRS_K(Mal)
  final purity (method not given): 95.4%
